Results published in PubChem BioAssay AID1487 (National Center for Advancing Translational Sciences (NCATS), 2009).
The other results are listed elsewhere or left out. These are further read-outs of the screen, such as a control signal, another cell line or another target. No call is given for them. The list favours compounds with an active or inconclusive main result. Potencies come from curve fits of mixed quality, noted in brackets.

Assay: qHTS Assay for Modulators of Lamin A Splicing
Conditions: HeLa LMNA splicing GFP/RFP minigene ratio, 48 h
Summary of the method: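 Read-out is the ratio of GFP to DsRed2 object intensity, acquired by 488 nm laser-scanning cytometry on HeLa lamin A-EGFP minigene reporter cells. Compound incubation 48 hrs at 37 °C in Opti-MEM with 2% FBS; DMSO 0.5% final.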

[1] = measured here: RFP viability control channel
[2] = measured here: GFP splicing reporter channel

Row | Compound | AC50 [1] | AC50 [2]
1 | C/C(=N\NC(=O)c1ccc([N+](=O)[O-])cc1)c1cc2ccccc2oc1=O | 17.8 µM [rising, single point] | 
2 | O=C(Oc1ccc(-n2cnnn2)cc1)c1ccco1 | 3.16 µM [falling, partial curve] | 2.51 µM [falling, partial curve]
3 | O=C(COC(=O)c1c2c(nc3ccccc13)CCCCC2)NCc1ccc2c(c1)OCO2 | 14.1 µM [rising, partial curve] | 
4 | CCCN1CCN(CCCNC(=O)Cn2c(-c3cccs3)cc3cc(Cl)ccc32)CC1 |  | 35.5 µM [falling, single point]
5 | O=c1c(Cc2ccc(Cl)cc2)c(O)ccn1Cc1cccc(Cl)c1 | 35.5 µM [rising, single point] | 
6 | Cc1ccc2[nH]c3c(=O)n(CCc4cnc[nH]4)cnc3c2c1 |  | 0.0794 µM [rising, full curve, poor fit]
7 | C[C@@H](Oc1ccc(Oc2cnc3ccc(Cl)cc3n2)cc1)C(=O)O |  | 2.51 µM [falling, full curve]
8 | O=C(Nc1ccc(F)c([N+](=O)[O-])c1)c1cccs1 |  | 35.5 µM [falling, single point]
9 | CCC(c1nnnn1CCOC)N1CCN(C(=O)c2ccco2)CC1 (stereo unspecified) | 14.1 µM [falling, partial curve] | 35.5 µM [falling, single point]
10 | O=C(CCS(=O)(=O)c1ccc(Br)cc1)N1CCN(c2ccc(Cl)cc2)CC1 | 14.1 µM [rising, single point] | 
11 | COCCCN1CCN(C2Cc3ccccc3Sc3ccc(Cl)cc32)CC1 (stereo unspecified) | 15.8 µM [rising, single point] | 11.2 µM [rising, single point]
12 | Cc1ccc(C(=O)N2c3ccccc3CC2C)o1 (stereo unspecified) | 15.8 µM [falling, partial curve] | 2.82 µM [falling, full curve]
13 | CC(C)OC(=O)C[N+](C)(C)CCN1C(=O)C2C(c3ccccc3)C=CC(c3ccccc3)C2C1=O (stereo unspecified) | 7.08 µM [falling, full curve, poor fit] | 
14 | Cc1sc2ncn(CCn3cnc4sc(C)c(C)c4c3=O)c(=O)c2c1C | 7.94 µM [rising, partial curve] | 
15 | O=S(=O)(c1ccccc1)N1CCN(S(=O)(=O)N2CCCCC2)CC1 | 1.26 µM [falling, partial curve] | 1.58 µM [falling, partial curve]
16 | CC(Oc1ccccc1Br)C(=O)N1CCc2ccccc21 (stereo unspecified) | 31.6 µM [rising, single point] | 
17 | CCOC(=O)Cc1ccc(NC(=O)c2ccc(C(C)(C)C)cc2)cc1 | 11.2 µM [rising, partial curve] | 15.8 µM [rising, partial curve]
18 | Cc1cccc(C(=O)N/N=C/c2cc(Br)c(Br)o2)c1 | 14.1 µM [rising, single point] | 20 µM [rising, single point]
19 | CCCN(CCC)C(=O)CSc1nnc2cc(C)c3ccccc3n12 |  | 2 µM [rising, full curve, poor fit]
20 | CCCCOC(=O)Sc1nc2ccccc2o1 | 11.2 µM [rising, partial curve, poor fit] | 
21 | CCSc1nnc(NC(=O)CSc2nccn2-c2cc(C)cc(C)c2)s1 | 17.8 µM [rising, single point] | 
22 | O=C1[C@@H]2[C@@H]3C[C@@H]([C@H]4ON=C(c5ccc(Cl)cc5)[C@@H]34)[C@@H]2C(=O)N1c1ccc2c(c1)OCO2 | 11.2 µM [rising, single point] | 
23 | O=C(/C=C/c1ccc(Cl)cc1)Nc1nc(-c2cccs2)ns1 | 25.1 µM [falling, single point] | 
24 | Cc1ccc(C(=O)NCC(=O)OC(C)C(=O)Nc2ccc(N(C)C)cc2)s1 (stereo unspecified) | 0.00891 µM [falling, full curve, poor fit] | 0.02 µM [falling, full curve, poor fit]
25 | Cn1c(S(=O)(=O)Cc2ccc(Cl)cc2)nc2ccccc21 |  | 0.0447 µM [falling, partial curve, poor fit]
26 | CC(=O)N1CCCc2cc(S(=O)(=O)N(Cc3ccccc3)C(C)C)ccc21 | 1 µM [rising, full curve] | 
27 | CC(C)CCNC(=O)C(CC(C)C)N(Cc1ccc2c(c1)OCO2)C(=O)c1snc(C(N)=O)c1N (stereo unspecified) |  | 35.5 µM [rising, single point]
28 | Cc1ccc(NC(=O)N(CCCN2CCOCC2)Cc2cc3cc4c(cc3[nH]c2=O)OCO4)cc1 | 22.4 µM [rising, single point] | 

Row | Compound | AC50 [1] | AC50 [2]
29 | CC(C)(C)c1ccc(Cn2nnc3c(=O)[nH]c(C4CCCN(C(=O)Cc5cccs5)C4)nc32)cc1 (stereo unspecified) | 25.1 µM [falling, partial curve] | 25.1 µM [falling, single point]
30 | Clc1ccc(OCc2nnc(SCc3nnc(-c4ccccc4)o3)o2)c(Cl)c1 | 0.1 µM [falling, full curve, poor fit] | 35.5 µM [rising, single point]
31 | COc1cc(/C=N/N=C2/NC(=O)C(CC(=O)O)S2)ccc1OCc1cccc(Cl)c1 (stereo unspecified) |  | 35.5 µM [falling, single point]
32 | Cc1cc(Cl)ccc1Oc1ccc(C(N)=O)cc1[N+](=O)[O-] | 15.8 µM [rising, partial curve] | 11.2 µM [rising, partial curve]
33 | c1ccc(-c2noc(-c3ccc4ccccc4c3)n2)nc1 | 2.51 µM [rising, single point] | 
34 | COC(=O)C1=C(C(=O)OC)[C@@H]2N(C)c3ccccc3[C@@]23C[C@@H](C(=O)OC)N(C(=O)CC(C)C)C3=N1 | 0.891 µM [falling, partial curve, poor fit] | 5.62 µM [falling, partial curve, poor fit]
35 | Cc1cccc(NC(=S)NNC(=O)c2ccccc2OC(F)F)c1 | 12.6 µM [rising, single point] | 
36 | Cc1cccc(S(=O)(=O)Nc2ccc(-c3nc4ccc(C)cc4s3)cc2)c1 | 35.5 µM [rising, single point] | 17.8 µM [rising, single point]
37 | CCOP(=O)(OCC)C(NC(=O)Nc1ccc(C)cc1)C(N)=O (stereo unspecified) |  | 0.00631 µM [rising, full curve, poor fit]
38 | Cn1c(C(C#N)C(=O)c2ccco2)nc2ccccc21 (stereo unspecified) | 0.00447 µM [falling, full curve, poor fit] | 
39 | Cc1nn(C)cc1S(=O)(=O)Nc1ccc2c(c1)OCCO2 |  | 11.2 µM [rising, single point]
40 | COc1ccccc1CNc1ncnc2cc(Cl)ccc12 |  | 5.62 µM [falling, single point]
41 | CN(Cc1cn(C)c2ccccc12)C(=S)Nc1cc(F)cc(F)c1 | 22.4 µM [rising, single point] | 
42 | COc1ccc(C(=O)N=c2sc3ccccc3n2C)cc1OC |  | 0.00501 µM [rising, full curve, poor fit]
43 | CCC1CCCCN1CC(=O)c1c(C)[nH]c2ccccc12 (stereo unspecified) | 12.6 µM [rising, single point] | 17.8 µM [rising, partial curve, poor fit]
44 | Cc1cc(C)c2nc(NC(=O)C3CC(=O)N(Cc4ccco4)C3)sc2c1 (stereo unspecified) | 0.178 µM [falling, full curve, poor fit] | 
45 | CCN1CCc2c(sc(-n3cccc3)c2C(C)NC(=O)Nc2ccccc2C)C1 (stereo unspecified) | 11.2 µM [rising, single point] | 
46 | COc1ccc(C(NC(=O)c2cccnc2)c2cc(Cl)c3cccnc3c2O)cc1OC (stereo unspecified) | 12.6 µM [falling, single point] | 28.2 µM [falling, single point]
47 | COc1ccccc1CNC(=O)c1cc2ccc3ccc(C)[nH]c3c2n1 | 22.4 µM [rising, single point] | 20 µM [rising, single point]
48 | COC(=O)C1=CN(Cc2cccs2)C=C(C(=O)OC)C1c1cccc(Cl)c1 |  | 31.6 µM [rising, single point]
49 | COC(=O)c1ccc(CSc2nnc(CS(=O)Cc3ccc(Br)cc3)n2-c2ccccc2)cc1 (stereo unspecified) | 14.1 µM [rising, single point] | 11.2 µM [rising, single point]
50 | CC1CCN(S(=O)(=O)c2cc(Br)cc(C(=O)NC3=NCCS3)c2)CC1 |  | 12.6 µM [rising, single point]
51 | O=C(Nc1ccc(Cl)cc1)N1CCC(c2nc(-c3ccccc3Cl)no2)CC1 | 12.6 µM [rising, partial curve] | 10 µM [rising, partial curve]
52 | N#C/C(=C/c1ccc(-c2ccc(Br)cc2)o1)C(=O)NC1CCCCC1 | 35.5 µM [rising, partial curve] | 35.5 µM [rising, single point]
53 | CC(C)OC(=O)c1cccc(NC(=O)CSc2nnc(N)s2)c1 | 35.5 µM [falling, single point] | 
54 | CCCCNC(=O)CSc1nc2ccccc2c(=O)n1C1CCCC1 | 15.8 µM [rising, single point] | 12.6 µM [rising, single point]
55 | Cc1cc([N+](=O)[O-])c2[nH]c(C(=O)N/N=C/c3ccccc3C(=O)O)c(-c3ccccc3)c2c1 | 35.5 µM [falling, single point] | 35.5 µM [falling, single point]
